This note sets out measurements from article PMC9922244.

What all share (assay): co-IP; cow ovarian cortical tissue lysate in 1% Triton X-100 in PBS; 1 µg monoclonal antibody (anti-CD9, anti-CD63 or anti-αVβ3) 4 h at RT, Protein G Agarose overnight at 4 °C, 5 washes in PBS; eluted in non-reducing sample buffer; blotted with anti-αV (CD9 and CD63 precipitates) or anti-CD63 (αVβ3 precipitate)
Experiment [1] addresses T1, tetraspanin CD63 (bovine (endogenous in cow ovarian tissue)) (UniProt Q9XSK2).
T1 sequence: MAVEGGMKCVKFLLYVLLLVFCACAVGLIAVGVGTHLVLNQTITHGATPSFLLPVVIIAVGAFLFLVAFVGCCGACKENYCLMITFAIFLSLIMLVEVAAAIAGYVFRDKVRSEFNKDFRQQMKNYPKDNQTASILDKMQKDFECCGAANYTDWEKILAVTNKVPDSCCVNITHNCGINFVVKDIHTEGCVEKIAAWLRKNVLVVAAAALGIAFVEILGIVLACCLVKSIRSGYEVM

Experiment [2] deals with T2, tetraspanin CD9 (bovine (endogenous in cow ovarian tissue)) (UniProt P30932).
T2 sequence: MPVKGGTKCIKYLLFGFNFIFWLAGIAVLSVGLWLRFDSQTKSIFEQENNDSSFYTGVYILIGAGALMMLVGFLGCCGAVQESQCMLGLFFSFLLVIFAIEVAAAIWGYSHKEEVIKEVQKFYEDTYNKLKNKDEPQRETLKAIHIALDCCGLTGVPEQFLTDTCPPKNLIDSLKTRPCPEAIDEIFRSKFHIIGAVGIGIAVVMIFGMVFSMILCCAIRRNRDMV

The target of experiment [3] is integrin αVβ3 (bovine (endogenous in cow ovarian tissue)).

No constants are given. Whether binding was seen depends on the method and setting. In cells and extracts the contact can be indirect. Binding calls can cover weak binding; strength is not graded here.

With integrin alpha V, the binding result in experiment [1] and in experiment [2] was “binds” each time.

B1: tetraspanin CD63 (protein, UniProt Q9XSK2 1-237)
chain: T1 sequence
For the molecule B1, in experiment [3], the binding result is recorded as “binds”.
